{
  "source": "PubChem BioAssay AID504834",
  "about": "(National Center for Advancing Translational Sciences (NCATS), 2011)",
  "note": "The whole screen tested about 320,000 compounds, of which about 22,000 (6.9%) were called active. The shares of active, inactive and inconclusive entries below differ from those in the screen. The call rests on the fitted dose curve; in most records, active means well fitted inhibition curve with a large enough effect; inconclusive means small, poorly fitted or top-dose-only effect, or another doubt; inactive means no such curve, though single readings can be large or run the other way. A potency beside an inconclusive call is a rough fit, not a confirmed value.",
  "data": [
    {"assay": "Primary qHTS for delayed death inhibitors of the malarial parasite plastid, 96 hour incubation; further: potency means the concentration at half of the fitted maximal effect", "conditions": "P. falciparum luciferase reporter growth; series mostly up to 28.7 µM", "method_in_brief": "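96 h incubation, 37 C, 5% CO2, of luciferase-reporter P. falciparum-infected RBCs (2% hematocrit, 0.05% parasitemia final) with test compounds; endpoint luminescence.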", "values": [
      {"compound": "Cn1c(O)c(C=NC2CC3CCC2(C)C3(C)C)c(=O)[nH]c1=O", "note": "(stereo unspecified)", "Potency": "inconclusive: 18.5 µM [inhibitor, single point]"},
      {"compound": "O=C(CCNS(=O)(=O)c1ccc2c(c1)CCC(=O)N2)Nc1ccc2c(c1)OCCO2", "Potency": "inconclusive: 18.5 µM [inhibitor, single point]"},
      {"compound": "Cc1cc(SCC(=O)OCC(=O)NC(C)c2ccccc2)c(C)cc1Br", "note": "(stereo unspecified)", "Potency": "inactive"},
      {"compound": "Cc1ccc(NC(=O)CC2OC(=O)c3ccccc32)cc1S(=O)(=O)N1CCCCCC1", "note": "(stereo unspecified)", "Potency": "inconclusive: 14.7 µM [inhibitor, single point]"},
      {"compound": "CC(=O)NC(CC(=O)O)C(=O)O", "note": "(stereo unspecified)", "Potency": "inactive"},
      {"compound": "Cc1cc(C)c2cccc(N)c2n1", "Potency": "inactive"},
      {"compound": "COc1ccccc1/C=C/C(=O)/C=C/c1ccccc1O", "Potency": "inconclusive: 1.47 µM [inhibitor, full curve]"},
      {"compound": "C/C(N)=C(/C#N)C(=O)CSc1nn(-c2ccc(Cl)cc2)c(=S)s1", "Potency": "inconclusive: 18.5 µM [inhibitor, single point]"},
      {"compound": "Cc1cccc(N2C(=O)N3[C@H](c4ccc(F)cc4)[C@@H]4C(=O)N(C5CCCCC5)C(=O)[C@@H]4[C@]3(Cc3ccccc3)C2=O)c1", "Potency": "active: 13.1 µM"},
      {"compound": "Cc1ccccc1N(CC(=O)Nc1ccc(S(=O)(=O)N2CCOCC2)cc1)S(C)(=O)=O", "Potency": "inconclusive: 16.5 µM [inhibitor, partial curve, poor fit]"},
      {"compound": "Cc1ccccc1CN1C[C@@H]2C[C@@H](c3ccc4nsnc4c3)N3CCC[C@@]23C1=O", "Potency": "inconclusive: 18.5 µM [inhibitor, single point]"},
      {"compound": "O=C(Nc1ccc(S(=O)(=O)N2CCOCC2)cc1)c1ccc([N+](=O)[O-])s1", "Potency": "inconclusive: 1.65 µM [inhibitor, full curve]"},
      {"compound": "C=C(c1ccccc1)c1ccc(N(C)C)cc1", "Potency": "inactive"},
      {"compound": "CC(C)OC(=O)c1cc2c(ccn2-c2ccc(F)cc2)n1CC(=O)N1CCN(C(=O)c2ccco2)CC1", "Potency": "inconclusive: 5.22 µM [inhibitor, partial curve, poor fit]"},
      {"compound": "C#CCOCCOCCOCCNc1nc(N2CCN(C(=O)[C@H]([C@@H](C)CC)n3cc([C@@H](N)CO)nn3)CC2)nc(N2CCN(C(=O)[C@H]([C@@H](C)CC)n3cc([C@@H](N)CC(C)C)nn3)CC2)n1", "Potency": "inconclusive: 11.7 µM [inhibitor, single point]"},
      {"compound": "CSc1ccc(S(=O)(=O)N2CCC(C(=O)NCCCn3ccnc3)CC2)cc1", "Potency": "inconclusive: 6.57 µM [inhibitor, partial curve, poor fit]"},
      {"compound": "CCc1ccc(OC(=O)CN2C(=O)c3ccccc3C2=O)cc1", "Potency": "inconclusive: 18.5 µM [inhibitor, single point]"},
      {"compound": "COc1ccccc1NC(=O)CSc1nnc(NC(=O)C2CCC2)s1", "Potency": "inactive"},
      {"compound": "CCCCNC(=O)N1CCCN(c2ccc(C#N)cn2)CC1", "Potency": "inconclusive: 9.28 µM [inhibitor, partial curve, poor fit]"},
      {"compound": "CC(=O)Nc1ccc(NC(=O)c2c(C)noc2C)cc1", "Potency": "inconclusive: 11.7 µM [inhibitor, single point]"},
      {"compound": "c1ccc(OCCCn2nnc(-c3ccncc3)n2)cc1", "Potency": "inconclusive: 18.5 µM [inhibitor, single point]"},
      {"compound": "O=c1[nH]c(C2CCCN(S(=O)(=O)c3ccccc3F)C2)nc2c1nnn2Cc1ccccc1Cl", "note": "(stereo unspecified)", "Potency": "active: 11.7 µM"},
      {"compound": "CN(C(=O)CN1C(=O)NC(C)(c2cccc(Br)c2)C1=O)C1CCCCC1", "note": "(stereo unspecified)", "Potency": "inconclusive: 8.28 µM [inhibitor, partial curve, poor fit]"},
      {"compound": "CCn1c2ccccc2c2cc(/C=N/NC(=O)c3ccccc3)ccc21", "Potency": "inactive"},
      {"compound": "CCC1(C)Cc2[nH]c(=O)c(C#N)cc2CO1", "note": "(stereo unspecified)", "Potency": "inconclusive: 9.28 µM [inhibitor, partial curve, poor fit]"},
      {"compound": "O=C(N/N=C/c1ccco1)c1cc(-c2cccs2)[nH]n1", "Potency": "inactive"},
      {"compound": "COc1ccccc1N(CC(=O)Nc1ccc2c(c1)OCCO2)S(C)(=O)=O", "Potency": "inconclusive: 18.5 µM [inhibitor, single point]"},
      {"compound": "NC(=O)CSc1nc2cc3c(cc2c(=O)n1CCCC(=O)NCc1ccc2c(c1)OCO2)OCO3", "Potency": "inconclusive: 0.0738 µM [inhibitor, full curve, poor fit]"},
      {"compound": "Nc1nc(Nc2ccccc2F)nc(NC2CCCCC2)c1[N+](=O)[O-]", "Potency": "inconclusive: 16.5 µM [inhibitor, single point]"},
      {"compound": "Nc1nnc(SCC(=O)N2CCN(Cc3ccccc3)CC2)s1", "Potency": "inactive"},
      {"compound": "O=C(N/N=C\\CCc1ccccc1)c1ccco1", "Potency": "inconclusive: 14.7 µM [inhibitor, single point]"},
      {"compound": "COc1cc(OC)cc(C(=O)NC2CCN(CCCOc3ccccc3)CC2)c1", "Potency": "inconclusive: 9.28 µM [inhibitor, single point]"},
      {"compound": "CC(=O)c1cccc(OCC(=O)Nc2cc(S(=O)(=O)N3CCOCC3)ccc2N2CCCC2)c1", "Potency": "inconclusive: 18.5 µM [inhibitor, single point]"},
      {"compound": "CN1CCC(Oc2ccccc2Sc2ccc(C(F)(F)F)cc2)CC1", "Potency": "inconclusive: 11.7 µM [inhibitor, single point]"},
      {"compound": "N#C/C(=C\\c1cccs1)c1nc2ccccc2[nH]1", "Potency": "inactive"},
      {"compound": "CCOC(=O)N1CCN(C(=O)CSCC(=O)Nc2nc(-c3ccc(OC)cc3)cs2)CC1", "Potency": "inconclusive: 14.7 µM [inhibitor, partial curve]"},
      {"compound": "Cc1[nH]c2ccccc2c1/C=N/Nc1nc(Nc2ccccc2)nc(N2CCOCC2)n1", "Potency": "inconclusive: 10.4 µM [inhibitor, single point]"},
      {"compound": "NS(=O)(=O)c1ccc(CCNC(=O)CSc2ccc(Cl)cc2)cc1", "Potency": "inconclusive: 4.15 µM [inhibitor, single point]"},
      {"compound": "CC(C)NS(=O)(=O)c1ccc(NC(=O)Cc2cccs2)cc1", "Potency": "inactive"},
      {"compound": "Cc1ccc(NC(=O)C2CCN(S(=O)(=O)c3cccc4nonc34)CC2)nc1", "Potency": "inconclusive: 18.5 µM [inhibitor, partial curve, poor fit]"},
      {"compound": "CN(CC(=O)Nc1cccc(F)c1)C(=O)c1ccc2c(c1)S(=O)(=O)N=C1CCCCCN12", "Potency": "inconclusive: 0.0586 µM [inhibitor, full curve, poor fit]"}
    ]}
  ]
}
